US20170191058A1, “PERFORIN 2 DEFENSE AGAINST INVASIVE AND MULTIDRUG RESISTANT PATHOGENS” (priority 2012, published 2017)
These are yes or no findings as the source states them, for the method shown. For part of these data: Binding seen in cells or lysates may run through a third protein. Some entries that bind do so weakly or less than the wild type. For part of these data: Where a sequence is shown, tags or fusion partners need not be part of it.

T1: cytoplasmic domain of Perforin-2 (P2), yeast two hybrid bait (UniProt A1L314)
T1 sequence (looked up): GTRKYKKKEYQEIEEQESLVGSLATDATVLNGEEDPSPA

T2: P-2-GFP fusion protein (Perforin-2 with GFP fused to the C-terminus of the cytoplasmic domain) (murine) (UniProt A1L314)
T2 sequence (looked up): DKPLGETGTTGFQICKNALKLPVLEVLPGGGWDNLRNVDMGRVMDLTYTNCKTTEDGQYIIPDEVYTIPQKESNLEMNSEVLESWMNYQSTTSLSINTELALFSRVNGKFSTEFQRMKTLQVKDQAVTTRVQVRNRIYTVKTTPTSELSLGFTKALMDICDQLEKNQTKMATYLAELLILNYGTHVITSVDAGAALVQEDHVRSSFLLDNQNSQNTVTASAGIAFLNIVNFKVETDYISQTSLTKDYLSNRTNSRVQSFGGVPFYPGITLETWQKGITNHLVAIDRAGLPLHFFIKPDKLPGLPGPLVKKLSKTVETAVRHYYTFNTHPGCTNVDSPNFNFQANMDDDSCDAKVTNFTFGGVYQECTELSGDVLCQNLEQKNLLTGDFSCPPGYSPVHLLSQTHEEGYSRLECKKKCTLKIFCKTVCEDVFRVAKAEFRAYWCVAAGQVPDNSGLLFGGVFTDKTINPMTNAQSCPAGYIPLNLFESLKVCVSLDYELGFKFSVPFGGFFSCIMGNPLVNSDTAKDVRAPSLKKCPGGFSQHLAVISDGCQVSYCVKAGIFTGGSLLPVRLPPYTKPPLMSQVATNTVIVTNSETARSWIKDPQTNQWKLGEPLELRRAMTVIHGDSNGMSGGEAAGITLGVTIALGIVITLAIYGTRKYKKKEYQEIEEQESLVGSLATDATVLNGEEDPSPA

B1: P21 RAS activator2/gap1m (sfpi1) (RASA2), yeast two hybrid clone (protein, UniProt P58069 2-847, looked up)
chain: AAAAPAAAASPEAPAVSGSADPETGDEDSREVRVLQSLRGRIYEAKNLLPYLGPNKMRDCFCTINLDQEEVYRTQVVEKSLSPYFSEEFYFEIPRTFQYLSFYVYDKNVLQRDLRIGKVAIKKEDLCSHSGKETWFSLQPIDSNSEVQGKVHLELRLNELITENGTVCQQLVVHIKACHGLPLINGQSCDPYATVSLVGPSRNDQKKTKVKKKTSNPQFNEVFYFEVTRSSSYSRKSQFQVEEEDIEKLEIRIDLWNNENLVQDVFLGEIKVPVNVLRSDSFHQAWYLLQPRDNGNKSSKTDDLGSLLLTLCYTEDCVLPSEYYGPLKTLLLKSPDVQPVSASAAYILGEICQDQKDAVLPLVRLLLHHNKLVPFITAVAELDLKDTPDANAIFRGNSLATQCLTEMMKIVGGHYLKVTLKPVLDEICESSKSCEIDPVKLKEGDNVENNKENLYYYVDKVFNTIVGSSVSCPTVMCDIFYSLRQMAAKKFPNHPHVQYSAVSSFVFLRFFAVAILSPHAFHLRPHYPDTQTVRTLTLISKTIQIIGNWGCQSRKKSRFKKSVMCEFLKMFQEERYFTDVKKFLDEISSTETKESSGTSEPVHLKEGEMYKRAQGRTRIGKKNFKKRWFCLTSRELTYHRQQGKDAIYTIPVKNILAVEKLEEGSFNKKNMFQVIHTEKTLYIQANNCVEANEWIDVLCRVSRCNHNRLSSFHPSAYLNGNWLCCQETSESTPGCKPCTAGIPADIQIDIDEDRETERIYSIFTLSLLKLQKMEETCGSIAVYQGPQKEPGYSKFTIEDSVATFKTIQQIKSTIEKLDEPHEKYRKKRSSSAKYGSKENPIVGKIS
B2: RASA2 of RAW cells (protein, UniProt P58069 2-847, looked up)
chain: B1 chain

Key:
[1] = molecular target: T1, cytoplasmic domain of Perforin-2 (P2), yeast two hybrid bait; test: yeast two hybrid
[2] = molecular target: T2, P-2-GFP fusion protein (Perforin-2 with GFP fused to the C-terminus of the cytoplasmic domain) (murine); test: co-immunoprecipitation from P-2-GFP transfected RAW cells
[3] = molecular target: T2, P-2-GFP fusion protein (Perforin-2 with GFP fused to the C-terminus of the cytoplasmic domain) (murine); test: immunoprecipitation with anti-GFP, pull down of RASA2

| Binder | binding [1] | binding [2] | binding [3] |
| --- | --- | --- | --- |
| B1 | binds |  |  |
| B2 |  | binds | binds |
